{
  "source": "patent US20180207190A1",
  "about": "“COMPOSITION CONTAINING NAD FOR PREVENTING AND TREATING OBESITY OR IMPAIRED GLUCOSE TOLERANCE” (UNIVERSITY OF ULSAN FOUNDATION FOR INDUSTRY COOPERATION, priority 2015, published 2018)",
  "system": "C57BL/6 mice",
  "experiment": "Feeding study, single intraperitoneal administration: food intake",
  "format": "in vivo, mouse",
  "description": "Mature male C57BL/6 mice were purchased from ORIENT BIO Inc. (Gyeonggi-do, Republic of Korea). Unless stated otherwise, the mice were freely fed a standard diet (Cargill Agri Purina, Inc., Seoul, Republic of Korea). To establish a diet-induced obesity (DIO) model, the mice were fed a HFD (60% fats, Research Diet Co., New Brunswick, N.J.) for 20 weeks. The animals were raised at a controlled temperature (22±1° C.) under a 12-hour light/dark cycle (a light condition from 08:00 a.m. to 8:00 p.m.) For experiments of single administration of NAD+ and NMN, 8-week-old mice were fasted overnight, and NAD+(purchased from Sigma, administered at 0.3, 1 and 3 mg/kg) or NMN (purchased from Sigma, administered at 30, 100, and 300 mg/kg) was intraperitoneally administered to the mice between 09:00 a.m. and 10:00 a.m. For ? chronic NAD+ treatment, NAD+(0.3 mg/kg body weight/day) was intraperitoneally injected once to the mice immediately before the lights went off for 4 weeks.\nA predetermined dose of NAD+ or NMN was administered to C57BL/6 mice, which were fasted overnight, during an early light phase (09:00 to 11:00) by using a given method. The same amount of a vehicle (i.e., physiological saline) was administered to the control mice.",
  "data": [
    {"compound": "NC(=O)c1ccc[n+]([C@@H]2O[C@H](COP(=O)([O-])OP(=O)(O)OC[C@H]3O[C@@H](n4cnc5c(N)ncnc54)[C@H](O)[C@@H]3O)[C@@H](O)[C@H]2O)c1", "note": "[NAD+, nicotinamide adenine dinucleotide]", "values": [
      {"measurement": "effective dose of NAD+ relative to that of NMN", "setting": "single IP injection, feed intake", "value": "about 1/300"},
      {"measurement": "effective dose of NAD+ relative to effective dose of NMN", "setting": "suppression of food intake and body weight, summary statement", "value": "at most 1/100"}
    ]}
  ]
}
